# Assay results from PubChem BioAssay AID1347423 (Functional Genomics Laboratory (NCATS/FGL), 2020).
# Among all 52,000 sequences or so, about 210 (0.4%) were called active.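 Rule for the calls: active = gene whose silencing raises cell survival under the drug, median off-target-corrected z-score across its silencing RNAs 2 or more; inactive = the rest.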 This is one part of the list.
# Assay: Resistance to Poly (ADP-Ribose) Polymerase inhibitor: Gene Identification via Genome-wide siRNA Screen
# Settings: mouse BRCA2 R2336H ES cells, olaparib, CellTiter-Glo viability; active compounds read high
# How it was run: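 Genome-wide siRNA screen (3 siRNAs/gene, 20 nM) in mouse ES cells carrying hypomorphic BRCA2 R2336H; olaparib 500 nM added 48 h post-transfection, CellTiter-Glo viability 72 h later. Normalized to plate-median negative control; MAD z-scores, gene median, seed-adjusted.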
row,Sequence,z-score
1,UGCCUCAAUCAUAAGUCCCTT against Olfr730,inactive: -2.07
2,GGACUUCACAAUUUAAGUUTT against Il5,inactive: -0.628
3,GGUUGUAAUAGCCUUAGCCTT against 5133400D11Rik,inactive: 0.845
4,GGAGAGAUGGAUACAUUUCTT against Atp5j,inactive: -0.208
5,GGCUUUAAGGUGUUUUUCATT against E230025K15,inactive: -0.18
6,GGUGCUGGAUGAAUUUGGGTT against Zp1,inactive: 0.0965
7,GAGUGAUCUUCCACUUACGTT against BC026645,inactive: 0.0486
8,GGAUGCUUGGCUGAAGAACTT against Ptprs,inactive: 0.583
9,GGAAGAUGAUGCUUUCAAATT against Il18,inactive: 0.178
10,GGCAAACCUGCUUUCAUGGTT against Smc5l1,inactive: -1.09
11,GCCAUUCGUUCUACGAAACTT against D6Wsu176e,inactive: -0.135
12,GGAAAGAAACUUAAAGUGGTT against Tfdp1,inactive: -0.184
13,GCACUUGCUUCAAGUAAUATT against G431002C21Rik,inactive: 0.202
14,GGAAUUUUCUACAUGUGUGTT against Lim2,inactive: 1.12
15,GGGAUUUUGUGAUGUCCGCTT against Mmp23,inactive: 0.242
16,GCUAAGACAGAACUCUUCUTT against Nap1l5,inactive: 0.334
17,GGAGAGAGAAUGAAAGUCATT against Gm608,inactive: -1.16
18,GGGUCUGUCAAGAUUGACATT against Fsip1,inactive: 3.38
19,GAAACUCUGUGAAUAUAACTT against Zfp97,inactive: 1.27
20,GGACAUCCAUCAUUACUUUTT against Slc26a2,inactive: 0.51
21,CGGGAUUCUAAAAAAAGUGTT against Hibadh,inactive: 0.699
22,GGGAACCCUAACAACUUCGTT against Wfdc6,inactive: -0.785
23,GCCAACAAAGUGAUCGAAGTT against Fkbp10,inactive: -0.197
24,GGUGUGGAUCUUUCGUAAUTT against Il1f9,inactive: -0.166
25,GCCUCGAUUCACCAAGUGUTT against Ghr,inactive: 2.31
26,GGGCAGCAUUUUUCUGAUATT against Mfap3,inactive: 0.0408

row,Sequence,z-score
1,GCACAUGGUUAUGGUGAAATT against Cd200r1,inactive: -0.756
2,GGAGUUCUUUCAGACCUUATT against Cidea,inactive: 0.441
3,GCCUCUUAUUUGGUUACGATT against Vmd2l3,inactive: -1.04
4,CCAUUGUGUUAAUUCAUGGTT against Kcnj15,inactive: 0.112
5,GCAACUAGCCUGUUCUAUCTT against AI325941,inactive: 1.68
6,GGAGUGCCUUUAGACAUGCTT against Trf3,inactive: -0.577
7,CGUAAGAAGUGGAUGAACATT against Zc3hdc7,inactive: 0.415
8,GGAGCUGACAGACUUCCUGTT against Fosl1,inactive: -1.51
9,GGCUUUAAGACAUAGUACUTT against Lbh,inactive: 1.21
10,GGUAUUUACCAUUAGCAGGTT against 6330442E10Rik,inactive: -0.39
11,CGAGUGUAAAUCCACUUUGTT against 0610039J04Rik,inactive: -0.66
12,GAACUGGUCCUACAAUGAATT against BC014685,inactive: -0.212
13,GGGUAAACAAACAGGUACCTT against 1200009O22Rik,inactive: 0.98
14,CCUUAACCUGGACAAGUGCTT against Itm2b,inactive: -0.222
15,CCCUCCAUGUCUAAAAAAATT against Kcmf1,inactive: 0.105
16,GCUCCUAUUACUGAAUUUATT against Olfr749,inactive: 1.28
17,GGCAAUUGGAAAUGCCCUGTT against Atp5h,inactive: -0.553
18,GCGUAGACUUGAGGACUUATT against Rxrip110,inactive: -1.51
19,GGUGCUCCUAUCCUGUUCATT against 2810489O06Rik,inactive: -0.818
20,GGGACAAUGGAGCAAGAUGTT against Fbxo42,inactive: -0.281
21,GGUUACUUAGCUUUUCUGATT against Tnfaip2,inactive: 0.532
22,GGUUGGACAAAAUGAUCUUTT against Abhd5,inactive: 0.728
23,GGAAUUCCCAUUGGAAGAATT against V1re4,inactive: 0.982
24,CCAUCAAAACGAUCAACAATT against Setbp1,inactive: 0.457
25,GGCUUUUGUUUUGAGGUAGTT against Zbed3,inactive: -0.201
26,GGUUUUCUUCUGAAUACCCTT against Dusp4,inactive: 1.09

# A second format for part of the listing above.
row	Sequence	z-score
7	CGUAAGAAGUGGAUGAACATT against Zc3hdc7	inactive: 0.415
8	GGAGCUGACAGACUUCCUGTT against Fosl1	inactive: -1.51

# Reprinted at random: 6 records from the list
row,Sequence,z-score
20,GGACAUCCAUCAUUACUUUTT against Slc26a2,inactive: 0.51
9,GGAAGAUGAUGCUUUCAAATT against Il18,inactive: 0.178
12,GGAAAGAAACUUAAAGUGGTT against Tfdp1,inactive: -0.184
25,GCCUCGAUUCACCAAGUGUTT against Ghr,inactive: 2.31
9,GGCUUUAAGACAUAGUACUTT against Lbh,inactive: 1.21
10,GGUAUUUACCAUUAGCAGGTT against 6330442E10Rik,inactive: -0.39

# Further entries

row,Sequence,z-score
1,GCUGAUAUGCUAUUGUAGATT against Defcr5,inactive: 0.615
2,GGUUGAAGGAGUGUUUUAUTT against D10Wsu52e,inactive: -0.635
3,GGAGUUUGAUGCAAAUUUUTT against Plpi,inactive: -0.147
4,CCACUGAGCCCAAUGGGUUTT against Nrxn2,inactive: -1.05
5,CCUCCUAAGGAUGAAGAUUTT against Calml4,inactive: -0.342
6,GGAUAUACUUACGUAACGGTT against Srp9,inactive: 0.665
7,GGAAAGCACUUUUAUUCCUTT against 3110007P09Rik,inactive: 1.88
8,GGUAAUGUUUGAAACUUACTT against Actr2,inactive: 0.476
9,GGCCAAAUGGAAUAAGAAGTT against 5430401O09Rik,inactive: -1.42
10,GGUUCUGGUUGAUAGAGAUTT against 4931428L18Rik,inactive: -0.289
11,GGAUAGAUGGUACACGUCUTT against 2410004A20Rik,inactive: -1.24
12,GGCAGAAAGAAAUUGAGAATT against Trim42,inactive: -0.241
13,CGGGUGCCGGAAAGUUUAUTT against Klf7,inactive: 0.466
14,GCUAUUGUAGUGGUUACUGTT against D430014M15,inactive: -1.39
15,CCUAAAUUAGUAGGACGGUTT against Cdkn1a,inactive: -0.742
16,GGAACCUGUACAGAUAAAGTT against Pam,inactive: -0.852
17,CCAUAUUUCAGAUCAGACUTT against Zfp68,inactive: 1.33
18,GGAGUCGUGUAUUUUGCUGTT against B3gat3,inactive: 0.537
19,GCAUUGUCAGUCCUACGUGTT against 9.83E+24,inactive: 1.38
20,GAUAAUAUCUUUGUCUGCUTT against Olfr461,inactive: 0.125
21,GCUGCGUCCUAUGAGUUUATT against Drg2,inactive: 2.29
22,GCUACCAUCUGCUAAUACATT against 2610207I05Rik,inactive: -1.41
23,GCUCAUGAUAUUACCUUCGTT against Olfr601,inactive: -0.255
24,GCAGAUUUUCCUUGUAGAATT against Smad2,inactive: 0.77
25,CGAAUAUGGGAUCAAGAAATT against 4933425L06Rik,inactive: 2.74
26,GCUUCCUCAAGCGCAUGUATT against Cox10,inactive: 1.58

row,Sequence,z-score
1,CGAUGCAUUCAUUGUCUAUTT against A830073O21Rik,inactive: -0.527
2,GGAAAAAGAGCAAAUUACUTT against Kif23,inactive: 0.545
3,GGCGAGACGACACAUUUUCTT against Cdc16,inactive: -3.14
4,CCUGGUAACCUGCUAAAAGTT against LOC331392,inactive: 2.26
5,GGUGGAGAUGGAAAACAUGTT against Myoz1,inactive: -0.319
6,GGACCAGGAUAGGACCAAUTT against Avpr2,inactive: 0.604
7,GGCAGCUUAGCUACUAUUCTT against Zfyve28,inactive: -2.63
8,GGUACACUUUGAAGACAAUTT against C230095G01Rik,inactive: -1.88
9,GGUAGCAGUAGGAUACUUCTT against Fshprh1,inactive: -2.62
10,GCUCGUAAUCUUUAUUGUUTT against Olfr874,inactive: 1.7
11,CCUAAGCCCAAGAUCAUCUTT against Mybph,inactive: -1.07
12,GGUCAACCUCAUGUUACGATT against Card11,inactive: 2.8
13,GCCUUCAUGGGAUUUGUCUTT against Opn1sw,inactive: -0.763
14,GGGAUUUCUUACCCUGUUUTT against Prr7,inactive: -0.454
15,CGCCUGUGUUUCGUACGUUTT against Mafg,inactive: 0.00746
16,CCACAUCUAGGCAAGGAACTT against Si,inactive: 0.201
17,CGAUCACACUCGAAAUCACTT against D10Bwg0940e,inactive: -0.59
18,CCACUAGACUUCAAUGACUTT against Zfhx1b,inactive: 1.17
19,CCGAUACCGGGUAUUUACCTT against 2610103M17Rik,inactive: -0.859
20,GACAGUAGCCUUCCUCAGGTT against Nr0b2,inactive: -0.139
21,GGUGUUGGAGACCAUGGAUTT against Clcn6,inactive: -0.602
22,CGCAUAUAUGUGUGUCGCCTT against 6330530A05Rik,inactive: 0.111
23,GGGCAUUUCAUACAACUCATT against Hsn2,inactive: 0.421
24,GGCGUACGUAGACAAGUACTT against Sfrs2ip,inactive: -1.7
25,CGAGGGUCCUCGAAGACUATT against 3300002I08Rik,inactive: -1.64
26,CCUACAUCCCUACCAUAGATT against Diras1,inactive: 0.84
